The whole screen tested about 390,000 compounds, of which about 60 (0.02%) were called active. The shares of active, inactive and inconclusive entries below differ from those in the screen. No stated cut-off is given here; in the data, active means activity change below about -50%; inconclusive means between about -30% and that limit; inactive means weaker than that.
Biological target: Mucolipin-1 (Homo sapiens) (UniProt Q9GZU1)
Test: qHTS for Inhibitors of the Human Mucolipin Transient Receptor Potential 1 (TRPML1);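 further: stimulus is agonist 54-4 at its EC80 concentration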
Conditions: TRPML1-inducible cells, Ca2+ dye fluorescence, FDSS; stronger effect = lower value; inhibition of EC80 agonist-evoked calcium signal
Summary of the method: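 Calcium fluorescence in TRPML1-DL cells induced overnight with Tet: a 110 s read after compound pin addition, then a 110 s antagonist read after challenge with 54-4 at 4 uM final (EC80).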
On the % scale 0 is the no-effect control and ±100 the full control effect.

Sequences of proteins named here, by UniProt entry; tags and fusion partners are left off.
UniProt Q9GZU1, whole entry, looked up: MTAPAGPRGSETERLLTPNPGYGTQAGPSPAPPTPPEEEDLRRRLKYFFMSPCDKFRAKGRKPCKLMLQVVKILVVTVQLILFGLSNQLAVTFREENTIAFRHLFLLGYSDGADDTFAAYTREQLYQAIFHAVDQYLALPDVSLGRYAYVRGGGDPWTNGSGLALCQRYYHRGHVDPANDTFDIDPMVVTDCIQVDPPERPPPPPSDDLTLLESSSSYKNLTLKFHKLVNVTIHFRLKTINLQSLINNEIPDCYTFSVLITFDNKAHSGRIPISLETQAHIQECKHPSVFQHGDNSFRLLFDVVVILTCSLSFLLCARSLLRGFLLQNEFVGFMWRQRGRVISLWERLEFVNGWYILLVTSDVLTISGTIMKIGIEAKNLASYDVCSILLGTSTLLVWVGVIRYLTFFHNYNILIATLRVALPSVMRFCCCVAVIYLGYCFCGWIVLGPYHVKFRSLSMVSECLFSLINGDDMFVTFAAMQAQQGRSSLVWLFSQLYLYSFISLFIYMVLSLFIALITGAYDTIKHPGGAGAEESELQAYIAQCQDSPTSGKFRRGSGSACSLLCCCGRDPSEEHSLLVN

SMILES	activity change, negative = inhibition
Cc1nonc1OCCNCc1c(C(=O)N2CCCCCCC2)nc2ccc(Cl)cn12	inconclusive: -34.1%
Cc1c(C(=O)N(C)C)sc2c1c(=O)n(-c1ccc(Cl)cc1)c(=O)n2CC(=O)C(C)(C)C	inconclusive: -40.2%
COc1ccc(NC(=O)c2csc3c2CCCCC3)c(OC)c1	inconclusive: -34.5%
COc1ccc(CN2CCNC(=O)C2CC(=O)N2CCc3ccccc3C2)c(OC)c1 (stereo unspecified)	inconclusive: -37.2%
NC(=O)c1c(NC(=O)COC(=O)c2ccc(O)c(Cl)c2)sc2c1CCCC2	inconclusive: -35.9%
CCN(CC)CCN1C(=O)C(=O)/C(=C(/O)c2c(C)[nH]c(C(=O)OC)c2C)C1c1ccco1 (stereo unspecified)	inactive: 16.5%
CC(C)Oc1ccc(CNC(=O)Oc2ccccc2)cc1	inconclusive: -38.6%
CNc1c([N+](=O)[O-])cnn1-c1ccc(Cl)cc1	inactive: -0.852%
Cc1cccc(C(=O)NC(=S)NCc2cccnc2)c1	inconclusive: -37.6%
NS(=O)(=O)c1cccc(NC(=O)CSc2ncc(C(F)(F)F)cc2Cl)c1	inconclusive: -31.1%
CCSc1nnc(NC(=O)C(C)(C(F)(F)F)C(F)(F)F)s1	inactive: 31.8%
Cc1cc([N+](=O)[O-])c(C)cc1-c1ccc(/C=N/n2cnnc2)o1	inconclusive: -39.2%
N#Cc1ccccc1NC(=O)COC(=O)CN1C(=O)C2CCCCC2C1=O (stereo unspecified)	inconclusive: -35.6%
CCOC(=O)c1c(NC(=O)CC2SC(N)=NC2=O)sc2c1CCC(C)C2 (stereo unspecified)	inconclusive: -30.2%
O=C(c1cc(-c2ccc(O)cc2)on1)N1CCCCCC1	active: -51.6%
O=C(CN1C(=O)c2ccccc2C1=O)NNC1=NS(=O)(=O)c2ccccc21	inconclusive: -34.2%
Cc1ccccc1C(=O)Nc1c(-c2cccs2)c(=O)c2ccccc2n1C	inconclusive: -31%
O=C(Cc1ccc([N+](=O)[O-])cc1)OCc1ccc([N+](=O)[O-])cc1	inactive: 19.2%
CC(OC(=O)Cc1coc2ccc3ccccc3c12)C(=O)NC(N)=O (stereo unspecified)	inconclusive: -31.5%
CC(=O)C1=C(c2ccccc2)NC(=O)NC1c1ccccc1 (stereo unspecified)	inconclusive: -36%
CCN(CC)CCSc1nnc2c3ccccc3n(CCc3ccccc3)c2n1	inactive: 33.4%
O=C(NNS(=O)(=O)c1ccccc1)c1cc2cc3ccccc3nc2s1	inactive: 6.38%

SMILES	activity change, negative = inhibition
Cc1ccc(S(=O)(=O)c2nc(Nc3nccs3)sc2Cl)cc1	inactive: 14.2%
OCC1(CCCc2ccccc2)CCN(Cc2cnc(N3CCOCC3)s2)CC1	inconclusive: -33.2%
COc1cccc(CNC(=O)CCCn2c(=O)c3cccn3c3cccnc32)c1OC	inconclusive: -32.1%
Cc1ccc(NC(=O)c2ccc(COc3ccc4c(c3)CCC4)cc2)c(C)c1	inconclusive: -48.3%
Cc1ccc(CC(=O)Nc2c(C(=O)N3CCN(c4ccccc4)CC3)oc3ccccc23)cc1	inactive: -11.6%
O=C(CN(CCN1CCOCC1)C(=O)Cn1nnc(-c2ccc(F)cc2)n1)NC1CCCCC1	inconclusive: -30.8%
CSc1ncc(Cl)c(C(=O)Nc2ccc(C)c(C)c2)n1	inconclusive: -30.8%
COc1cc(Cl)c(C)cc1Nc1c2c(nc3ccccc13)CCC2	inconclusive: -35.3%
CCOc1c(O)ccc(C2NC(=O)NC(C)=C2C(=O)OC)c1[N+](=O)[O-] (stereo unspecified)	inconclusive: -37.5%
COc1ccc(N=Nc2nc3cc(Br)c(Br)cc3n2C)c(OC)c1	inactive: 5.27%
CC1(CCC(=O)N2CCCC(N3CCN(c4cccc(C(F)(F)F)c4)CC3)C2)CC1 (stereo unspecified)	inactive: 35.3%
CCn1cc(CN2CCCC(C(=O)c3ccc(-c4ccccc4)cc3)C2)cn1 (stereo unspecified)	inconclusive: -34%
Cc1c(C(=O)NC2CCN(Cc3ccccc3)C2)oc2c(Cl)cccc12 (stereo unspecified)	inactive: 5.4%
COc1ccc(/C=C2\SC(=S)N(C(C)C(=O)NC3C=CS(=O)(=O)C3)C2=O)cc1 (stereo unspecified)	inconclusive: -38.5%
Cc1noc(C)c1S(=O)(=O)NCCc1csc2nc(-c3ccc(F)cc3)nn12	inactive: -22.3%
CCN(CC)S(=O)(=O)c1ccc(/C=C/C(=O)O)cc1	inconclusive: -31.6%
CNC(=O)c1nn(-c2ccccc2)ccc1=O	inconclusive: -30.2%
CCCc1ncc(CN2CCC(C(=O)Nc3cccc(-c4cscn4)c3)CC2)cn1	inconclusive: -39.5%
Cc1ccc(S(=O)(=O)N2CCOCC2)cc1C(=O)Nc1ccccc1F	inconclusive: -31.5%
Cc1nc2sc3c(c2c(=O)n1/N=C/c1cccnc1)CCCC3	inconclusive: -39.2%
C=CCOc1c(CNc2ncn[nH]2)cccc1OC	inconclusive: -35.5%
CCOC(=O)c1ccccc1NC(=O)Cn1c(=O)n(CCCC(=O)NCc2ccc3c(c2)OCO3)c(=O)c2ccccc21	inactive: -4.39%

SMILES	activity change, negative = inhibition
CCc1nc(Nc2ccc3c(c2)OCCO3)c2oc3ccccc3c2n1	inactive: -0.382%
COCCNc1oc(-c2ccc(COc3ccc(OC)cc3)o2)nc1C#N	inconclusive: -33%
Cc1ccc([C@@H]2CC=C(C(=O)O)[C@H](c3ccc(F)cc3)N2S(=O)(=O)c2ccc(C)cc2)cc1	inactive: -11.2%
Clc1ccc(C[n+]2cc(-c3ccccc3)n3c2CCC3)cc1	inconclusive: -32.8%
COc1ccc(S(=O)(=O)N2CCN(CC(=O)Nc3c(C)n[nH]c3C)CC2)cc1OC	inactive: -8.92%
CCN(C(=O)CCN1C(=O)S/C(=C\c2ccccc2)C1=O)C1CCS(=O)(=O)C1 (stereo unspecified)	inconclusive: -37.2%
COc1cn(CC(=O)Nc2ccccc2)c(CN2CCCCC2)cc1=O	inconclusive: -31.8%
Cc1ccccc1CSCC(=O)NC1CCCC1	inactive: 34.4%
COc1ccc(-n2c(C)c(C)c3c(NCCCN(C)C)ncnc32)cc1	inactive: 13.3%
CCNC(=S)N1CCN(c2nc(-c3cccc(OC)c3)cs2)CC1	inconclusive: -47.3%
CC1(C)CC2CC(C)(CN2C(=O)COC(=O)Cn2[nH]c(=O)c3ccccc3c2=O)C1 (stereo unspecified)	inconclusive: -43.9%
O=C(Cn1c(=O)oc2cc(S(=O)(=O)N3CCCC3)ccc21)NCc1ccc(F)cc1	inconclusive: -30.5%
Cc1ccc(CN2CCN(CC(=O)N/N=C/c3ccc(C)o3)CC2)cc1	inconclusive: -48.1%
CCCOc1c(Br)cc(C(=O)NCC)cc1OC	inconclusive: -36.1%
CCN(CC)S(=O)(=O)c1ccc(NS(=O)(=O)c2cccs2)cc1	inconclusive: -39.1%
CCN(CC(=O)NC1CCS(=O)(=O)C1)S(=O)(=O)c1cc([N+](=O)[O-])ccc1C (stereo unspecified)	inconclusive: -30.2%
Cc1nc2ccccn2c(=O)c1NC(=O)COc1ccccc1	inconclusive: -34.3%
Cc1ccc(C(=O)N2N=C(c3ccc(Br)cc3)CC2c2ccccc2O)cc1 (stereo unspecified)	inconclusive: -41.6%
CC(C)COc1ccc(C(=O)OCCN2CCOCC2)c(O)c1	inconclusive: -33.2%
CCOC(=O)c1cc(-c2ccccc2)n(CCCC(=O)Nc2ccc(C)cc2Cl)c1C	inconclusive: -39.1%
CC(C)=CC(=O)Nc1ccc(Cl)cc1	inactive: -8.48%
COc1ccc(N=Nc2nc(-c3ccccc3)c(-c3ccccc3)[nH]2)cc1	inactive: 7.12%

Already shown: an excerpt of the list.
SMILES	activity change, negative = inhibition
CC(=O)C1=C(c2ccccc2)NC(=O)NC1c1ccccc1 (stereo unspecified)	inconclusive: -36%
CCN(CC)CCSc1nnc2c3ccccc3n(CCc3ccccc3)c2n1	inactive: 33.4%
O=C(NNS(=O)(=O)c1ccccc1)c1cc2cc3ccccc3nc2s1	inactive: 6.38%
Cc1ccc(S(=O)(=O)c2nc(Nc3nccs3)sc2Cl)cc1	inactive: 14.2%
OCC1(CCCc2ccccc2)CCN(Cc2cnc(N3CCOCC3)s2)CC1	inconclusive: -33.2%
COc1cccc(CNC(=O)CCCn2c(=O)c3cccn3c3cccnc32)c1OC	inconclusive: -32.1%

Further records follow.

SMILES	activity change, negative = inhibition
COC(=O)CC1C(=O)NCCN1C(=O)CSc1nnc(Nc2ccc(C)cc2)s1 (stereo unspecified)	inconclusive: -32.6%
Cc1cccn2c(/C=N/OCc3ccc(F)cc3)c(-c3ccc(Cl)cc3)nc12	inconclusive: -33.5%
COc1ccc(OC)c(C(c2nnnn2CC2CCCO2)N2CCN(C3CCCC3)CC2)c1 (stereo unspecified)	inconclusive: -37.9%
COc1ccc(-n2c(-c3ccccc3)cc3c2CCCC3=O)cc1	inconclusive: -30.9%
O=C(Nc1ccc(C(=O)N2CCN(c3ccc(F)cc3)CC2)cc1)C1=CSCCO1	inconclusive: -46.7%
FC(F)(F)c1ccc(Oc2ccc3cc(Br)ccc3c2)nc1	inconclusive: -34.2%
COC(=O)c1[nH]c2ccccc2c1NC(=O)Oc1ccccc1	inactive: -0.768%
COc1ccccc1C1NC(=O)NC(C)=C1C(=O)OCc1ccccc1 (stereo unspecified)	inactive: -11.6%
Cc1noc(C)c1S(=O)(=O)N1CCCC(C(=O)Nc2ccc(C(C)C)cc2)C1 (stereo unspecified)	inconclusive: -34.4%
COc1ccc(-c2cc(C(=O)Nc3ccc(F)cc3F)no2)cc1	inconclusive: -32.5%
c1c2c(cc3sc(N4CCCCC4)nc13)OCO2	inconclusive: -35%
CCOc1ccccc1NS(=O)(=O)c1ccc2c(c1)NC(=O)CCS2	inconclusive: -46.6%
Cc1ccc(C(=O)Nc2cccc(C(F)(F)F)c2)cc1Nc1ncnc2nc[nH]c12	inconclusive: -30.9%
Nc1cccc(C(=O)c2ccccc2C(=O)O)c1	inconclusive: -32.2%
CCN(CC(=O)NC(=O)NCc1ccco1)Cc1nc2ccccc2c(=O)[nH]1	inactive: 8.67%
COc1ccccc1N1CCN(C2CCN(C(=O)c3ccc(F)cc3)CC2)CC1	inconclusive: -40.3%
O=C1NC(=O)C(c2ccccc2)(c2ccccc2)N1S(=O)(=O)c1ccccc1	inactive: -10.4%
CCCCCCc1cc2cc(-c3cn4c(n3)sc3cc(OC)ccc34)c(=O)oc2cc1O	active: -70.7%
Cc1ccc(C2/C(=C(\O)c3c(C)nc4ccccn34)C(=O)C(=O)N2CCN(C)C)o1 (stereo unspecified)	active: -55.9%
C=C1C(=O)O[C@@]23[C@H]1CC[C@@H](C)[C@@H]2CC[C@@]1(C)O[C@@H]31	inactive: -15.9%

Reference: PubChem BioAssay AID624415 (National Center for Advancing Translational Sciences (NCATS), 2012)
